The values below come from patent US5104492A, “Recovery of carboxylic acids from water by precipitation from organic solutions” (The Regents of the University of California, priority 1990, dated 1992).

The text on this data set:
An aqueous solution of fumaric acid was extracted with methyl isobutyl ketone (MIBK).

Where two headings read alike, the source gives them in different places.

Turning to `O=C(O)/C=C/C(=O)O` [fumaric acid], the “excess acid recovered as a solid precipitate” value is, setting by setting: (0.76% H2O, overhead fraction 26.56%) 46.8%; (0.95% H2O, overhead fraction 14.19%) 39.1%.
